No constants are given. Whether binding was seen depends on the method and setting. Binding seen in cells or lysates may run through a third protein. Some entries that bind do so weakly or less than the wild type.

Amino acid sequences for entries named in this document (tags omitted).
UniProt P51784: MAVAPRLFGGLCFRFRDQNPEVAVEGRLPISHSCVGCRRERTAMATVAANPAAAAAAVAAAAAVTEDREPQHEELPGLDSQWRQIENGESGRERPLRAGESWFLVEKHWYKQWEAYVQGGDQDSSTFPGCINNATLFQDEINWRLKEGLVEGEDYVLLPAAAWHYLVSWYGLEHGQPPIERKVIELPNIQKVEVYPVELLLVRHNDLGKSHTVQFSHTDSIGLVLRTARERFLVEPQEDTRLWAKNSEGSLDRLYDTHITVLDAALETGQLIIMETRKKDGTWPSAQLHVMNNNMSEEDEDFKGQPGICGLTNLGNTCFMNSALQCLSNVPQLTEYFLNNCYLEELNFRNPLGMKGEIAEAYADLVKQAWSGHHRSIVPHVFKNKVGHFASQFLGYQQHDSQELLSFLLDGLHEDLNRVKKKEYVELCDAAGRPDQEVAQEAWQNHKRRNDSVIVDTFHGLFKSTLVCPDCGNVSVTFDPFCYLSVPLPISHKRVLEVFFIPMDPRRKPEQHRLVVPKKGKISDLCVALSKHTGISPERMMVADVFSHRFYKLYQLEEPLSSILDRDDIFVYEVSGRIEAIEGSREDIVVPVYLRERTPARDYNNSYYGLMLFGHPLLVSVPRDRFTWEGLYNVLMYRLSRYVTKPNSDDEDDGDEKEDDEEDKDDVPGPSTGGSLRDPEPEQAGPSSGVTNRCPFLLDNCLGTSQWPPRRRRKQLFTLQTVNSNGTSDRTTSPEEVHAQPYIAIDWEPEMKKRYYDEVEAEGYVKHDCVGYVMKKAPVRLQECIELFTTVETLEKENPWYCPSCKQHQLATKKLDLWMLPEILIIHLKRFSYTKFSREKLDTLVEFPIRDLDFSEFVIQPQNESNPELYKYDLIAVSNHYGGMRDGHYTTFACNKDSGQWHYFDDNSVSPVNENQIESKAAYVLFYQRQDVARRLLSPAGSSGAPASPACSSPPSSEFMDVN
UniProt Q13547: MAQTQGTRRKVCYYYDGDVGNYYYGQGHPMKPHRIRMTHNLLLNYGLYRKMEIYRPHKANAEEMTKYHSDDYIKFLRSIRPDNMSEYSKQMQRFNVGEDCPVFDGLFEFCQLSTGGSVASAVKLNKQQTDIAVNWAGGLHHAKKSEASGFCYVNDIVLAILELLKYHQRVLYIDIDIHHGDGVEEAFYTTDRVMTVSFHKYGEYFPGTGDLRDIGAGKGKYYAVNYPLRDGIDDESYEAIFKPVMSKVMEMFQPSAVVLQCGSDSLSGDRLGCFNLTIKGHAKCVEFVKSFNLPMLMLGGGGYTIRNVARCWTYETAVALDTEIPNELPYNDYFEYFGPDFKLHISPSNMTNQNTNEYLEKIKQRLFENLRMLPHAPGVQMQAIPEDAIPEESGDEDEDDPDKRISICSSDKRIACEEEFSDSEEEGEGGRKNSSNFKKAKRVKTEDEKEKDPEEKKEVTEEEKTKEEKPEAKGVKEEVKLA
UniProt Q92769: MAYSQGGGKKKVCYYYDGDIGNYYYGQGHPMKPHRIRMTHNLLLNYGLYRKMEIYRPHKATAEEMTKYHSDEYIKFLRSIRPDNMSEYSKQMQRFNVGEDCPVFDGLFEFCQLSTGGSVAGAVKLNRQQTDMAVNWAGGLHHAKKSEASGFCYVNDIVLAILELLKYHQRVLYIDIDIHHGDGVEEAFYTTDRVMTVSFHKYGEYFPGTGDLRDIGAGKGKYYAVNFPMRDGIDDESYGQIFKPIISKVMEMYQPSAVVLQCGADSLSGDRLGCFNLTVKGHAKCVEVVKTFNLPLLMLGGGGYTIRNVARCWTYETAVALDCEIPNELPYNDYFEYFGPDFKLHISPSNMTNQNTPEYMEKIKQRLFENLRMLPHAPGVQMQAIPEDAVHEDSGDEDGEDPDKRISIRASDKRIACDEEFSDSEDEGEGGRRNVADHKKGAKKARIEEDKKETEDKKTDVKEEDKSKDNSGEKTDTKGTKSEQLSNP
UniProt Q14839: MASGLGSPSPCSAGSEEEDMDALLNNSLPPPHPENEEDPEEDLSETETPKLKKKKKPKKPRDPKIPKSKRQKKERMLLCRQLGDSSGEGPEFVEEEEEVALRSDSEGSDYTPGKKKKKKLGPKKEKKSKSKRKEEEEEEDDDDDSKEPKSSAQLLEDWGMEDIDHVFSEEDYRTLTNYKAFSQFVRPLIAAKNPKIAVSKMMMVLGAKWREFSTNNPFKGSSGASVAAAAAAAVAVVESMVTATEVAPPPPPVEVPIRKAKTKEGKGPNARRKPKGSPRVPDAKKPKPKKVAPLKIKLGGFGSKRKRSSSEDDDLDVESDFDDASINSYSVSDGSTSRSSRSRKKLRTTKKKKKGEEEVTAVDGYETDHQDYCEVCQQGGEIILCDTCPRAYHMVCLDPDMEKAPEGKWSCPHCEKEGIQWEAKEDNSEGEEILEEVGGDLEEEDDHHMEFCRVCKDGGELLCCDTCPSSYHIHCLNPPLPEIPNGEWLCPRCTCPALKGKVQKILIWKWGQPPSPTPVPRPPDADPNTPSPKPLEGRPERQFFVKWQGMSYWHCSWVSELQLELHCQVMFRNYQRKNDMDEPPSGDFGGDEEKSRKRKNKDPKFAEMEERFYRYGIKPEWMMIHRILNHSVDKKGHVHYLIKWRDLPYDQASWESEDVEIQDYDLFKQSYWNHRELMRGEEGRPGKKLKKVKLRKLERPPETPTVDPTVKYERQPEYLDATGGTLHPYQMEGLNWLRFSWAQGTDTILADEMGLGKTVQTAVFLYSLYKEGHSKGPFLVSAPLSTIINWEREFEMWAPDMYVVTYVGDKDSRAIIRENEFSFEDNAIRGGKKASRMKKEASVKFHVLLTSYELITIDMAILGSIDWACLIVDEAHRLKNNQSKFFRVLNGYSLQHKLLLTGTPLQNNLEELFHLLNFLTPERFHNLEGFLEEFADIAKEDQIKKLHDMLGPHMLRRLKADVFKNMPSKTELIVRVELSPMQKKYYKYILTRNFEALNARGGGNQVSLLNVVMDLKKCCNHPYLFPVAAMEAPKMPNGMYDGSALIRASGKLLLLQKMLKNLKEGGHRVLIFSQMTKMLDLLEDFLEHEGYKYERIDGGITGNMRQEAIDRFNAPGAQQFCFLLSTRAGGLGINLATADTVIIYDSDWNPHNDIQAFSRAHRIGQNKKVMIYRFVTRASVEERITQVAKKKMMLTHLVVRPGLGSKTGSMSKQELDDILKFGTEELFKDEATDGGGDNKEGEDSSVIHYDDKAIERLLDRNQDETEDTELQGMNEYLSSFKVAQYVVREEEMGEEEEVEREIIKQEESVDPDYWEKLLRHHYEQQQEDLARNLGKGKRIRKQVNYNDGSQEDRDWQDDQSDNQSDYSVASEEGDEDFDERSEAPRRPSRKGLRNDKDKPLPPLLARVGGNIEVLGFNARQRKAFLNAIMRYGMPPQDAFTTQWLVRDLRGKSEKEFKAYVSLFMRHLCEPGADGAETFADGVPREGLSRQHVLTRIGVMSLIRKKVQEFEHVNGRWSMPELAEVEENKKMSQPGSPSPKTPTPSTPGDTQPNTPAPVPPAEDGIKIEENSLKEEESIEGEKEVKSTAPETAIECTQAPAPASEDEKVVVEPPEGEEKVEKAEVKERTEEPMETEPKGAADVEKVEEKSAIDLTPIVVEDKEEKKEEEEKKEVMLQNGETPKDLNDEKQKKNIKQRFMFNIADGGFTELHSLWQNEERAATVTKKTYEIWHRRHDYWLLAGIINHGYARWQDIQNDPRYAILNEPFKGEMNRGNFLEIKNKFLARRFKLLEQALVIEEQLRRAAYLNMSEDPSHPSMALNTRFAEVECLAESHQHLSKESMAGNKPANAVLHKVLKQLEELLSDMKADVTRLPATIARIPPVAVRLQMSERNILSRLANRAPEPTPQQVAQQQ
UniProt P09874: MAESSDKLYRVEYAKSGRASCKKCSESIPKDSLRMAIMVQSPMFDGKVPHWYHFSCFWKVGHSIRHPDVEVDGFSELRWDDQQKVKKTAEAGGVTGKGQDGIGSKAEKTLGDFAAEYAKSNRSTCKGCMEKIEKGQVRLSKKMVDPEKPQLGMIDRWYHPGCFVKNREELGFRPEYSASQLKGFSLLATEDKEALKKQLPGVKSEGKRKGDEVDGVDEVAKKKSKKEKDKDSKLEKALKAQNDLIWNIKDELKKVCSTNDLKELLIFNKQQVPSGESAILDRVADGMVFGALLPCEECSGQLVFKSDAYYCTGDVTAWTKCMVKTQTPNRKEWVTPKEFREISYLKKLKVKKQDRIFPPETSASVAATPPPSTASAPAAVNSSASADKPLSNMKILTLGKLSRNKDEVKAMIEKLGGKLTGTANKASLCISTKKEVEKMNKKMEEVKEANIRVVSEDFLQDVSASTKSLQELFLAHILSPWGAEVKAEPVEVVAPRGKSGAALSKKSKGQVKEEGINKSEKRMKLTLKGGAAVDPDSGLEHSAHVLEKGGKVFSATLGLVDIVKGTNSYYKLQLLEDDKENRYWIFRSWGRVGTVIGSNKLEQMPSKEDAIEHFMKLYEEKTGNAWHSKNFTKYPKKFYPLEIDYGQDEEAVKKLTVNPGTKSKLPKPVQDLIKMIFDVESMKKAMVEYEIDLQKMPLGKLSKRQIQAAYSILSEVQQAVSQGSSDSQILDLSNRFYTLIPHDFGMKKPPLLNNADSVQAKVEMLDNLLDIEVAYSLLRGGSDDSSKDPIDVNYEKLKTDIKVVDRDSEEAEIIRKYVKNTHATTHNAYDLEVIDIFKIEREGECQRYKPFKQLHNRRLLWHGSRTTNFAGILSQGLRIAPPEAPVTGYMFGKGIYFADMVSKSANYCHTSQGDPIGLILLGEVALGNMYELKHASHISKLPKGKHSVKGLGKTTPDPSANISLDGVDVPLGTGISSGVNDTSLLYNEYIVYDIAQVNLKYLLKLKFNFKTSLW
UniProt Q09028: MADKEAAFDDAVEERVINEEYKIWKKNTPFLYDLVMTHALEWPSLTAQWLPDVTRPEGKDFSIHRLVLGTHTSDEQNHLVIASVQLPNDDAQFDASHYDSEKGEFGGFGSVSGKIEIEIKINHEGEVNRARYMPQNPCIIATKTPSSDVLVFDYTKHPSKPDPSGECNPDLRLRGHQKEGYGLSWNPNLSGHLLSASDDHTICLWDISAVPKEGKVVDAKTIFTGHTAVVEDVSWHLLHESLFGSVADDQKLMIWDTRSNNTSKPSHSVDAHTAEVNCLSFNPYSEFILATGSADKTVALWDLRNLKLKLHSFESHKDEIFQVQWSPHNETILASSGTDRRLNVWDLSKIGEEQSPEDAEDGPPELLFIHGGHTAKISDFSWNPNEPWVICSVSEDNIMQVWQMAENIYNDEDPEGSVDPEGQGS

The target of one assay is FLAG-USP11 (UniProt P51784). The assay is described as follows: co-IP; whole-cell lysates of HEK293T transfected with FLAG-USP11, IP with anti-FLAG, immunoblot for NuRD components.
Assay [1] addresses USP11 (endogenous, HEK293T) (human (endogenous in HEK293T)) (UniProt P51784). The assay is described as follows: co-IP; whole-cell lysates of HEK293T, IP with anti-USP11 or IgG, immunoblot for endogenous NuRD components; HEK293T also after IR (6 Gy, 8 h), MMS (0.001%, 4 h) or MMC (1 μg/ml, 4 h) (Figure 3B, C). For orientation: Immunoblotting shows a protein as a band on a membrane.

Another assay deals with GST-fused USP11 (UniProt P51784). The assay is described as follows: pull-down; bacterially expressed GST or GST-fused USP11 with in vitro transcribed/translated individual NuRD components; only the target purified.
In assay [2] the target is USP11 (endogenous, U2OS) (human (endogenous in U2OS)) (UniProt P51784). The assay is described as follows: co-IP; extracts of U2OS cells, untreated or exposed to IR (6 Gy, 8 h in Figure 3B), immunoprecipitated and immunoblotted with antibodies as indicated.

As to “HDAC1 (endogenous, HEK293T) (from UniProt Q13547 1-482) (enzyme)”, the binding entry (in the assay with FLAG-USP11; in assay [1]) was “binds” throughout. For the substance “HDAC2 (endogenous, HEK293T) (from UniProt Q92769 1-488) (enzyme)”, the binding entry (in the assay with FLAG-USP11; in assay [1]) was “binds” in each case. With “HDAC2 (in vitro transcribed/translated) (from UniProt Q92769 1-488) (enzyme)”, the binding result in the assay with GST-fused USP11 was “binds”. With “Mi-2β (endogenous, HEK293T) (from UniProt Q14839 1-1912)”, the binding result (with FLAG-USP11; in assay [1]) was “binds” each time. On to “PARP1 (endogenous, U2OS) (from UniProt P09874 1-1014) (enzyme)”, for which the binding result in assay [2] is “binds”. In the case of “RbAp48 (endogenous, HEK293T) (from UniProt Q09028 1-425)”, the binding result (in the assay with FLAG-USP11; in assay [1]) was “binds” each time.

Values taken from PMC6765148.
